These are yes or no findings as the source states them, for the method shown. In cells and extracts the contact can be indirect. Binding calls can cover weak binding; strength is not graded here.
T1: Sec24D (mouse, Min-6 insulinoma cells) (mouse (endogenous in Min-6)) (UniProt Q6NXL1)
T1 sequence: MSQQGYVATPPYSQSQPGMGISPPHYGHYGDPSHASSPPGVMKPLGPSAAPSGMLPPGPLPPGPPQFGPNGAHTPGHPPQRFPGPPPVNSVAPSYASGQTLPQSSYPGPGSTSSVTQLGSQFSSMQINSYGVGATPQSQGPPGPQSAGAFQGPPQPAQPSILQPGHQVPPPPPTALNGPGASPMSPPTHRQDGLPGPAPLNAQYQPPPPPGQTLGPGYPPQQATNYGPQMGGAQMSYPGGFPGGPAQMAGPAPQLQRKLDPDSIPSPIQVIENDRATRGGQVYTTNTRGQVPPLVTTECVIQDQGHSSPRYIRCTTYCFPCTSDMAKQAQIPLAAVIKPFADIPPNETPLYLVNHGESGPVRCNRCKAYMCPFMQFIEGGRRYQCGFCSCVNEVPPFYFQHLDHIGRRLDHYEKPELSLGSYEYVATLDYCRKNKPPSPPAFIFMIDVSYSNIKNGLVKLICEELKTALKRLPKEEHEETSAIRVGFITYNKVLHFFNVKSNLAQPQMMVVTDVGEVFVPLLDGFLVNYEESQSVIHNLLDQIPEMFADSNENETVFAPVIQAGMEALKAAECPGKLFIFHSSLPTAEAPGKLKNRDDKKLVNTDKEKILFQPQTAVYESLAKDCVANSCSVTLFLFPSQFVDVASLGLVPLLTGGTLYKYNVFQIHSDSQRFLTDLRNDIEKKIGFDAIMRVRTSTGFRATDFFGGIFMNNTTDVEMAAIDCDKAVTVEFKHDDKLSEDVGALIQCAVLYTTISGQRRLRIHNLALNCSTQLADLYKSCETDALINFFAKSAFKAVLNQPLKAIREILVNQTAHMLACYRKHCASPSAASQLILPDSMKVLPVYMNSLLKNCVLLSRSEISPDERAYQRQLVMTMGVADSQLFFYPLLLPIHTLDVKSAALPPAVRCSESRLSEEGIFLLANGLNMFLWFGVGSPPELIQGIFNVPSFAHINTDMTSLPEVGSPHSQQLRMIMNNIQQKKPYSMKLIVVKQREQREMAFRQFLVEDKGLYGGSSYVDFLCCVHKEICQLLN


Columns and labels:
[1] = biological target: T1, Sec24D (mouse, Min-6 insulinoma cells) (mouse (endogenous in Min-6)); assay: co-IP; Min-6 lysate, non-denaturing; 50 ug lysate protein, 2 ul primary antibody 1 h, Protein G agarose 2 h at room temperature; precipitated Proinsulin quantified by Mercodia rat/mouse Proinsulin ELISA; controls: no antibody, anti-V5
[2] = biological target: Proinsulin (mouse, Min-6 insulinoma cells) (mouse (endogenous in Min-6)); assay: co-IP; Min-6 cells lysed under non-denaturing conditions (RIPA without SDS or Thermo lysis buffer); 500 ug lysate protein, 10 ul primary antibody 1 h at room temperature, Protein G PLUS agarose 2 h; precipitate read by SDS-PAGE and immunoblot

Row | binding [1] | binding [2] | Molecule
1 | binds | – | Proinsulin (mouse, Min-6 insulinoma cells)
2 | – | binds | Sec24D (mouse, Min-6 insulinoma cells) (protein, UniProt Q6NXL1 1-1032) MSQQGYVATPPYSQSQPGMGISPPHYGHYGDPSHASSPPGVMKPLGPSAAPSGMLPPGPLPPGPPQFGPNGAHTPGHPPQRFPGPPPVNSVAPSYASGQTLPQSSYPGPGSTSSVTQLGSQFSSMQINSYGVGATPQSQGPPGPQSAGAFQGPPQPAQPSILQPGHQVPPPPPTALNGPGASPMSPPTHRQDGLPGPAPLNAQYQPPPPPGQTLGPGYPPQQATNYGPQMGGAQMSYPGGFPGGPAQMAGPAPQLQRKLDPDSIPSPIQVIENDRATRGGQVYTTNTRGQVPPLVTTECVIQDQGHSSPRYIRCTTYCFPCTSDMAKQAQIPLAAVIKPFADIPPNETPLYLVNHGESGPVRCNRCKAYMCPFMQFIEGGRRYQCGFCSCVNEVPPFYFQHLDHIGRRLDHYEKPELSLGSYEYVATLDYCRKNKPPSPPAFIFMIDVSYSNIKNGLVKLICEELKTALKRLPKEEHEETSAIRVGFITYNKVLHFFNVKSNLAQPQMMVVTDVGEVFVPLLDGFLVNYEESQSVIHNLLDQIPEMFADSNENETVFAPVIQAGMEALKAAECPGKLFIFHSSLPTAEAPGKLKNRDDKKLVNTDKEKILFQPQTAVYESLAKDCVANSCSVTLFLFPSQFVDVASLGLVPLLTGGTLYKYNVFQIHSDSQRFLTDLRNDIEKKIGFDAIMRVRTSTGFRATDFFGGIFMNNTTDVEMAAIDCDKAVTVEFKHDDKLSEDVGALIQCAVLYTTISGQRRLRIHNLALNCSTQLADLYKSCETDALINFFAKSAFKAVLNQPLKAIREILVNQTAHMLACYRKHCASPSAASQLILPDSMKVLPVYMNSLLKNCVLLSRSEISPDERAYQRQLVMTMGVADSQLFFYPLLLPIHTLDVKSAALPPAVRCSESRLSEEGIFLLANGLNMFLWFGVGSPPELIQGIFNVPSFAHINTDMTSLPEVGSPHSQQLRMIMNNIQQKKPYSMKLIVVKQREQREMAFRQFLVEDKGLYGGSSYVDFLCCVHKEICQLLN
